Test results reported in publication PMC10461479.
No constants are given. Whether binding was seen depends on the method and setting. In cells and extracts the contact can be indirect. Some binding calls cover weakened binding; strength is not graded here.

The chains behind the UniProt entries cited, without tags or fusion partners.
UniProt Q9NYV6: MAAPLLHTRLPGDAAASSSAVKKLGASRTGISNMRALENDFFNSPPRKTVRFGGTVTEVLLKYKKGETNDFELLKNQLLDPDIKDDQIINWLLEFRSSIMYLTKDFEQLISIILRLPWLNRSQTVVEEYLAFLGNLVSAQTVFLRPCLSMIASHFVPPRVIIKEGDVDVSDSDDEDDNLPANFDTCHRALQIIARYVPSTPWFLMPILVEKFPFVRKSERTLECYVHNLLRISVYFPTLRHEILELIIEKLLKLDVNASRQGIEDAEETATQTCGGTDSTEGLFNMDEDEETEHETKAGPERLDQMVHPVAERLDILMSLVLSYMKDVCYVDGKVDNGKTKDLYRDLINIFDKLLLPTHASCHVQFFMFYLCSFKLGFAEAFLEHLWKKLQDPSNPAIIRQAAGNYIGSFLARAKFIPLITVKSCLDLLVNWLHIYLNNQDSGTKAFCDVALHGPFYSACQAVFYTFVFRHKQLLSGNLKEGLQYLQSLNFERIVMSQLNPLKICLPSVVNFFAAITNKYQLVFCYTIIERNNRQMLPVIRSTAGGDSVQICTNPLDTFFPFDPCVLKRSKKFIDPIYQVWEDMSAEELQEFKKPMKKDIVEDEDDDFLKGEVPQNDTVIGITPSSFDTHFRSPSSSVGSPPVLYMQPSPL

Target: T1, TAF1A (TAFI48) (human (endogenous in HepG2)) (UniProt Q15573)
T1 sequence: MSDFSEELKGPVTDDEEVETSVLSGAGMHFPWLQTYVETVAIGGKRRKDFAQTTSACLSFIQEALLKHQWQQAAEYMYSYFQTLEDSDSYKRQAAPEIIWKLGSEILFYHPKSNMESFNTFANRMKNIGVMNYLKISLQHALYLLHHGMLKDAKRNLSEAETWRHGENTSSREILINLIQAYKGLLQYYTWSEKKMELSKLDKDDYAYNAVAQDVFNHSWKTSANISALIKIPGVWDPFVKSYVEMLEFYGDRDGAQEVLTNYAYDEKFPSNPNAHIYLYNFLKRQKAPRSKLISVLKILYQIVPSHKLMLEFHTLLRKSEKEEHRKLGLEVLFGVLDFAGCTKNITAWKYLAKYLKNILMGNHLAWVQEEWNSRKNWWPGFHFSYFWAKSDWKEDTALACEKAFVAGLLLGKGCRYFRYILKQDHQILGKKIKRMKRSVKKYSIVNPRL
Assay: co-IP; endogenous TAF1A immunoprecipitated with anti-TAF1A antibody (Pierce Classic Magnetic IP/Co-IP Kit) from lysates of HepG2 cells transduced with scramble or TAF1B shRNA#6, 3 days after transduction; Western blot for RRN3 and UBF

With RRN3 (from UniProt Q9NYV6 1-651) as the substance, how does the binding read?
The binding was “binds”.
